Assay results from publication doi:10.1101/2020.06.13.149989.
These are yes or no findings as the source states them, for the method shown. Binding seen in cells or lysates may run through a third protein. Some binding calls cover weakened binding; strength is not graded here.

Target: p9 protein on Sepharose beads (UniProt P61024)
Test: pull-down

- binding: binds
Substance: CDK2 (from UniProt P23437 1-297)
